According to the supplement of paper PMC7661543:
The effect of the compound repeats well; differences between the knockouts mostly do not.

Tested on: BT-20
Test: relative cell number vs DMSO control (72 h) (% of DMSO); higher = less growth inhibition (more cells)
Experimental: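 QMAP-Seq: a pool of 5 breast cancer cell lines (ZR-75-1, SKBR3, HCC-38, MDA-MB-231, BT-20), each carrying 12 doxycycline-inducible Cas9 sgRNA perturbations (11 knockouts plus non-targeting sgNT), was treated with compounds for 72 h at four 10-fold doses (10 nM-10 uM or 1 nM-1 uM range). Barcodes were amplified and sequenced, and cell number was interpolated from 293T spike-in standard curves. The result is expressed as % of the median of DMSO wells. Two biological replicates.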

CC(C)[C@]12O[C@H]1[C@@H]1O[C@]13[C@]1(O[C@H]1C[C@H]1C4=C(CC[C@@]13C)C(=O)OC4)[C@@H]2O [Triptolide]
Details | relative cell number
sgRNA knockout: sgATF3, 1 nM | 114
sgRNA knockout: sgATF3, 10 nM | 84.2
sgRNA knockout: sgATF3, 100 nM | 37.6
sgRNA knockout: sgATF3, 1000 nM | 24.8
sgRNA knockout: sgATF4, 1 nM | 111
sgRNA knockout: sgATF4, 10 nM | 102
sgRNA knockout: sgATF4, 100 nM | 39.6
sgRNA knockout: sgATF4, 1000 nM | 27.6
sgRNA knockout: sgATF6, 1 nM | 104
sgRNA knockout: sgATF6, 10 nM | 74.9
sgRNA knockout: sgATF6, 100 nM | 30.2
sgRNA knockout: sgATF6, 1000 nM | 20.6
sgRNA knockout: sgATG7, 1 nM | 96.9
sgRNA knockout: sgATG7, 10 nM | 77.6
sgRNA knockout: sgATG7, 100 nM | 36.9
sgRNA knockout: sgATG7, 1000 nM | 24.55
sgRNA knockout: sgERN1, 1 nM | 97.2
sgRNA knockout: sgERN1, 10 nM | 80.386
sgRNA knockout: sgERN1, 100 nM | 31.4
sgRNA knockout: sgERN1, 1000 nM | 28.9
sgRNA knockout: sgHSF1, 1 nM | 99.2
sgRNA knockout: sgHSF1, 10 nM | 86.9
sgRNA knockout: sgHSF1, 100 nM | 31.2
sgRNA knockout: sgHSF1, 1000 nM | 25.6
sgRNA knockout: sgHSF2, 1 nM | 93.8
sgRNA knockout: sgHSF2, 10 nM | 77.5
sgRNA knockout: sgHSF2, 100 nM | 30.8
sgRNA knockout: sgHSF2, 1000 nM | 20.9
sgRNA knockout: sgKEAP1, 1 nM | 103
sgRNA knockout: sgKEAP1, 10 nM | 89.2
sgRNA knockout: sgKEAP1, 100 nM | 32.5
sgRNA knockout: sgKEAP1, 1000 nM | 25.9
sgRNA knockout: sgNFE2L2, 1 nM | 117
sgRNA knockout: sgNFE2L2, 10 nM | 76.4
sgRNA knockout: sgNFE2L2, 100 nM | 36.2
sgRNA knockout: sgNFE2L2, 1000 nM | 25.7
sgRNA knockout: sgSLC35F2, 1 nM | 112
sgRNA knockout: sgSLC35F2, 10 nM | 90.1
sgRNA knockout: sgSLC35F2, 100 nM | 31.6
sgRNA knockout: sgSLC35F2, 1000 nM | 25.9
sgRNA knockout: sgXBP1, 1 nM | 100.66
sgRNA knockout: sgXBP1, 10 nM | 93.6
sgRNA knockout: sgXBP1, 100 nM | 34.1
sgRNA knockout: sgXBP1, 1000 nM | 23.9

Cc1onc(-c2ccccc2)c1-c1ccc(S(N)(=O)=O)cc1 [Valdecoxib]
Details | relative cell number
sgRNA knockout: sgATF3, 10 nM | 108
sgRNA knockout: sgATF3, 100 nM | 96.5
sgRNA knockout: sgATF3, 1000 nM | 96.4
sgRNA knockout: sgATF3, 10000 nM | 98.3
sgRNA knockout: sgATF4, 10 nM | 99.8
sgRNA knockout: sgATF4, 100 nM | 112
sgRNA knockout: sgATF4, 1000 nM | 95.6
sgRNA knockout: sgATF4, 10000 nM | 120
sgRNA knockout: sgATF6, 10 nM | 105
sgRNA knockout: sgATF6, 100 nM | 97.5
sgRNA knockout: sgATF6, 1000 nM | 109
sgRNA knockout: sgATF6, 10000 nM | 112
sgRNA knockout: sgATG7, 10 nM | 95.3
sgRNA knockout: sgATG7, 100 nM | 102
sgRNA knockout: sgATG7, 1000 nM | 102
sgRNA knockout: sgATG7, 10000 nM | 96.5
sgRNA knockout: sgERN1, 10 nM | 92.7
sgRNA knockout: sgERN1, 100 nM | 104
sgRNA knockout: sgERN1, 1000 nM | 110
sgRNA knockout: sgERN1, 10000 nM | 122
sgRNA knockout: sgHSF1, 10 nM | 101
sgRNA knockout: sgHSF1, 100 nM | 118
sgRNA knockout: sgHSF1, 1000 nM | 118
sgRNA knockout: sgHSF1, 10000 nM | 105
sgRNA knockout: sgHSF2, 10 nM | 105
sgRNA knockout: sgHSF2, 100 nM | 91.3
sgRNA knockout: sgHSF2, 1000 nM | 97.5
sgRNA knockout: sgHSF2, 10000 nM | 117
sgRNA knockout: sgKEAP1, 10 nM | 97.9
sgRNA knockout: sgKEAP1, 100 nM | 108
sgRNA knockout: sgKEAP1, 1000 nM | 109
sgRNA knockout: sgKEAP1, 10000 nM | 111
sgRNA knockout: sgNFE2L2, 10 nM | 101
sgRNA knockout: sgNFE2L2, 100 nM | 103
sgRNA knockout: sgNFE2L2, 1000 nM | 98.8
sgRNA knockout: sgNFE2L2, 10000 nM | 114
sgRNA knockout: sgSLC35F2, 10 nM | 101
sgRNA knockout: sgSLC35F2, 100 nM | 112
sgRNA knockout: sgSLC35F2, 1000 nM | 113
sgRNA knockout: sgSLC35F2, 10000 nM | 116
sgRNA knockout: sgXBP1, 10 nM | 96.1
sgRNA knockout: sgXBP1, 100 nM | 100
sgRNA knockout: sgXBP1, 1000 nM | 101
sgRNA knockout: sgXBP1, 10000 nM | 103

Cc1cnc(Nc2ccc(OCCN3CCCC3)cc2)nc1Nc1cccc(S(=O)(=O)NC(C)(C)C)c1
Details | relative cell number
sgRNA knockout: sgATF3, 10 nM | 95.9
sgRNA knockout: sgATF3, 100 nM | 109
sgRNA knockout: sgATF3, 1000 nM | 83.6
sgRNA knockout: sgATF3, 10000 nM | 34.8
sgRNA knockout: sgATF4, 10 nM | 101
sgRNA knockout: sgATF4, 100 nM | 118
sgRNA knockout: sgATF4, 1000 nM | 71.9
sgRNA knockout: sgATF4, 10000 nM | 34.9
sgRNA knockout: sgATF6, 10 nM | 89.3
sgRNA knockout: sgATF6, 100 nM | 88.6
sgRNA knockout: sgATF6, 1000 nM | 81.7
sgRNA knockout: sgATF6, 10000 nM | 28.3
sgRNA knockout: sgATG7, 10 nM | 104
sgRNA knockout: sgATG7, 100 nM | 112
sgRNA knockout: sgATG7, 1000 nM | 77.6
sgRNA knockout: sgATG7, 10000 nM | 34.3
sgRNA knockout: sgERN1, 10 nM | 89.8
sgRNA knockout: sgERN1, 100 nM | 90.5
sgRNA knockout: sgERN1, 1000 nM | 70.8
sgRNA knockout: sgERN1, 10000 nM | 32.1
sgRNA knockout: sgHSF1, 10 nM | 90.3
sgRNA knockout: sgHSF1, 100 nM | 106
sgRNA knockout: sgHSF1, 1000 nM | 79
sgRNA knockout: sgHSF1, 10000 nM | 35.4
sgRNA knockout: sgHSF2, 10 nM | 100
sgRNA knockout: sgHSF2, 100 nM | 81.5
sgRNA knockout: sgHSF2, 1000 nM | 76
sgRNA knockout: sgHSF2, 10000 nM | 35.6
sgRNA knockout: sgKEAP1, 10 nM | 94.9
sgRNA knockout: sgKEAP1, 100 nM | 91.8
sgRNA knockout: sgKEAP1, 1000 nM | 74.1
sgRNA knockout: sgKEAP1, 10000 nM | 40.1
sgRNA knockout: sgNFE2L2, 10 nM | 114
sgRNA knockout: sgNFE2L2, 100 nM | 107
sgRNA knockout: sgNFE2L2, 1000 nM | 77.8
sgRNA knockout: sgNFE2L2, 10000 nM | 31
sgRNA knockout: sgSLC35F2, 10 nM | 110
sgRNA knockout: sgSLC35F2, 100 nM | 93.6
sgRNA knockout: sgSLC35F2, 1000 nM | 72.1
sgRNA knockout: sgSLC35F2, 10000 nM | 34.6
sgRNA knockout: sgXBP1, 10 nM | 100
sgRNA knockout: sgXBP1, 100 nM | 115
sgRNA knockout: sgXBP1, 1000 nM | 95
sgRNA knockout: sgXBP1, 10000 nM | 37.2
